Data as given in PubChem BioAssay AID1224830 (NIAID, 2016)
The whole screen tested about 18,000 reagents; shown is a part drawn at random. Of all reagents, about 2,900 (16%) got an active call. 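Calls are made per well; low scores hint the gene aids the LPS response, high scores that it dampens it.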 Entries without a mark were called inactive. Repeated entries: four replicate wells of each siRNA pool.

Test: 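Genes whose knock-down alters the TNF-alpha reporter response to LPS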 (primary screen)
Cell system: human THP-1 monocytic leukaemia cells, TNF dual-luciferase reporter clone, PMA-differentiated to macrophage-like cells
Reagents: siRNA pool against human genes, 50 nM
Timing: LPS for 4 h, given about 3 days after siRNA transfection
Treatment: bacterial LPS (TLR4 ligand), 10 ng/ml
Measurement: 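Ratio of firefly to renilla light, scaled to the plate median and expressed as a robust z-score per replicate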
Direction: TNF reporter robust z-score: higher = stronger TNF reporter response to LPS
Rule for the call: 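Each well counts as active if its z-score is over 2.8 or under -1.5; controls are left without a call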

YWHAQ [SID315454500]: TNF reporter robust z-score = 0.57
YWHAQ [SID315454500]: TNF reporter robust z-score = 0.25
YWHAQ [SID315454500]: TNF reporter robust z-score = 0.26
YWHAQ [SID315454500]: TNF reporter robust z-score = 0.41
HIVEP1 (HIVEP zinc finger 1) [SID315449194]: TNF reporter robust z-score = 1.74
HIVEP1 (HIVEP zinc finger 1) [SID315449194]: TNF reporter robust z-score = 1
HIVEP1 (HIVEP zinc finger 1) [SID315449194]: TNF reporter robust z-score = 0.61
HIVEP1 (HIVEP zinc finger 1) [SID315449194]: TNF reporter robust z-score = 0.82
MOB3B (MOB kinase activator 3B) [SID315459483]: TNF reporter robust z-score = 0.55
MOB3B (MOB kinase activator 3B) [SID315459483]: TNF reporter robust z-score = 0.3
MOB3B (MOB kinase activator 3B) [SID315459483]: TNF reporter robust z-score = 1.19
MOB3B (MOB kinase activator 3B) [SID315459483]: TNF reporter robust z-score = -0.26
ZNF212 (zinc finger protein 212) [SID315452365]: TNF reporter robust z-score = 0.1
ZNF212 (zinc finger protein 212) [SID315452365]: TNF reporter robust z-score = -0.19
ZNF212 (zinc finger protein 212) [SID315452365]: TNF reporter robust z-score = 0.43
ZNF212 (zinc finger protein 212) [SID315452365]: TNF reporter robust z-score = 0.63
A1CF (APOBEC1 complementation factor) [SID315456257]: TNF reporter robust z-score = -0.26
A1CF (APOBEC1 complementation factor) [SID315456257]: TNF reporter robust z-score = 0.81
A1CF (APOBEC1 complementation factor) [SID315456257]: TNF reporter robust z-score = 0.28
A1CF (APOBEC1 complementation factor) [SID315456257]: TNF reporter robust z-score = 1.11
SMIM11 (small integral membrane protein 11) [SID315456959]: TNF reporter robust z-score = 2.46
SMIM11 (small integral membrane protein 11) [SID315456959]: TNF reporter robust z-score = 3.58 (active)
SMIM11 (small integral membrane protein 11) [SID315456959]: TNF reporter robust z-score = -0.34
SMIM11 (small integral membrane protein 11) [SID315456959]: TNF reporter robust z-score = -0.51
KATNB1 (katanin regulatory subunit B1) [SID315453990]: TNF reporter robust z-score = -1.15
KATNB1 (katanin regulatory subunit B1) [SID315453990]: TNF reporter robust z-score = 0.38
KATNB1 (katanin regulatory subunit B1) [SID315453990]: TNF reporter robust z-score = 0.94
KATNB1 (katanin regulatory subunit B1) [SID315453990]: TNF reporter robust z-score = -0.36
SAMHD1 [SID315455567]: TNF reporter robust z-score = 3.55 (active)
SAMHD1 [SID315455567]: TNF reporter robust z-score = 3.03 (active)
SAMHD1 [SID315455567]: TNF reporter robust z-score = -0.04
SAMHD1 [SID315455567]: TNF reporter robust z-score = 2.43

Hits, of those listed so far:
SMIM11 (small integral membrane protein 11) [SID315456959]: TNF reporter robust z-score = 3.58 (active)
SAMHD1 [SID315455567]: TNF reporter robust z-score = 3.55 (active)
SAMHD1 [SID315455567]: TNF reporter robust z-score = 3.03 (active)
